Laboratory results taken from PMC6609651.
Results are given in words; binding and its absence hold for the method and conditions named. For some assays here: Binding seen in cells or lysates may run through a third protein. Some entries that bind do so weakly or less than the wild type.

Amino acid sequences for entries named in this document (tags omitted). Residues count along the entry.
UniProt P02769, residues 25-607: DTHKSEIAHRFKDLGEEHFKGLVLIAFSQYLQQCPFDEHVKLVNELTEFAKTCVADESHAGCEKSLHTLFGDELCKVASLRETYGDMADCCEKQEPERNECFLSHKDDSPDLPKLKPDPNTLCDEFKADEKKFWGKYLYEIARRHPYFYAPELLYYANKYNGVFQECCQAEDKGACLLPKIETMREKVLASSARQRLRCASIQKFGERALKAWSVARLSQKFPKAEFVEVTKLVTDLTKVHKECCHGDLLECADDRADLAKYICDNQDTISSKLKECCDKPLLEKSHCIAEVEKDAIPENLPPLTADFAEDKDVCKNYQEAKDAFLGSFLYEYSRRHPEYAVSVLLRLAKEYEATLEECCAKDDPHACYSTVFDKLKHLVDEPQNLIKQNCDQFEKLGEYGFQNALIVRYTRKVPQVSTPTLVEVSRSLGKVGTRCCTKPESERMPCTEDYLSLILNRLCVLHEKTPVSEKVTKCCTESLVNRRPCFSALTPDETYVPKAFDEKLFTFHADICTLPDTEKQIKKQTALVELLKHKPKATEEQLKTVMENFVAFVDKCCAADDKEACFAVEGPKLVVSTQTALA
UniProt Q9UHX3, residues 24-823: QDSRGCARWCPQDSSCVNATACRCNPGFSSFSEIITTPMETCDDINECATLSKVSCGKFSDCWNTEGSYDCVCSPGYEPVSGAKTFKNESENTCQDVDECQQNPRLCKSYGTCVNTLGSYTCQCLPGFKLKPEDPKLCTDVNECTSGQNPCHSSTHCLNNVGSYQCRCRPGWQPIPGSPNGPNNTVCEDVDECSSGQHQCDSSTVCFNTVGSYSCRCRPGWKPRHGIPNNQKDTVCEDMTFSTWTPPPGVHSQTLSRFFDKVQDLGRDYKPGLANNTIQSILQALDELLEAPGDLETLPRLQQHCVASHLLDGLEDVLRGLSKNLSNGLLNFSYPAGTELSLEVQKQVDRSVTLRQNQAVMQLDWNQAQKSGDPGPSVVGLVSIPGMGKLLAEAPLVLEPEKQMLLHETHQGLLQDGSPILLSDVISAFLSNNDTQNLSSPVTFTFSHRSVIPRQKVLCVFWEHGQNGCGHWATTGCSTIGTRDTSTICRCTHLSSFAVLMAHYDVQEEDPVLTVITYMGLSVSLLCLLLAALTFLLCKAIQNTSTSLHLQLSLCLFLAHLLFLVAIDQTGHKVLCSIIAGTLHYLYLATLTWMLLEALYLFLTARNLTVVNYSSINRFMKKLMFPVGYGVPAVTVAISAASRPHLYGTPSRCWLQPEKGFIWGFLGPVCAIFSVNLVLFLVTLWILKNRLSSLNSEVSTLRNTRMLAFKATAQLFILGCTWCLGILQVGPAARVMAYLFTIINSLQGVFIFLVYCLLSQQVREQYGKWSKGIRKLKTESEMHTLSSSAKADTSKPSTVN
UniProt Q03591, residues 19-330: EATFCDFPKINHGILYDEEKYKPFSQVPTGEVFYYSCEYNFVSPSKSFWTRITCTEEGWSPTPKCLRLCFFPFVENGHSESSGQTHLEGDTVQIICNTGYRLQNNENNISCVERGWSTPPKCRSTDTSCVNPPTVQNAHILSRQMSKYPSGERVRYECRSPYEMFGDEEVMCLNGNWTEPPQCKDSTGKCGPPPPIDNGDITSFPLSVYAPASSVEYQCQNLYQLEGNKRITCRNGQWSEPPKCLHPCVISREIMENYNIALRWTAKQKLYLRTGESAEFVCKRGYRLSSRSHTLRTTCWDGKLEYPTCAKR

Tests used:
[1] = target: BSA (bovine (from the name BSA)) (UniProt P02769); test: ELISA; BSA (5 µg mL^-1) coated 1 h at 37 °C, blocked; FHR1 30 µg mL^-1 2 h at RT; polyclonal FHR1 antiserum; both purified
[2] = target: T1, TGFβRI (human (endogenous in whole blood cells and patient tissue)) (UniProt P36897); test: proximity ligation; paraffin sections of AAV kidney biopsies and human atherosclerotic plaques; monoclonal mouse anti-FHR1 with rabbit anti-EMR2 antiserum or TGFβRI antibody
T1 sequence: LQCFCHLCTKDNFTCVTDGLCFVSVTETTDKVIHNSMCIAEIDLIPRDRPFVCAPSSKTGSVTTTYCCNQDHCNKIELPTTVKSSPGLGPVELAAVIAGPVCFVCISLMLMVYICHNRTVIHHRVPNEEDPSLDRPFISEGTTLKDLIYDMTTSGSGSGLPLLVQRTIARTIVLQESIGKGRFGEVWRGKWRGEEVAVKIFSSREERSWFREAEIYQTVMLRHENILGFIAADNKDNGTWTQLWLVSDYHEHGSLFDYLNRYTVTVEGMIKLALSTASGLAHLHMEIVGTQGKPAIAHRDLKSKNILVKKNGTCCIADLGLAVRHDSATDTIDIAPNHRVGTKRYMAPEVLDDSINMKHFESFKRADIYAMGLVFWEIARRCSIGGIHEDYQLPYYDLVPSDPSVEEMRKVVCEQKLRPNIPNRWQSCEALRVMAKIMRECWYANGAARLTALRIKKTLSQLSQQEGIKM

[3] = target: EMR2 receptor on monocytes and in patient tissue (human (endogenous in blood monocytes and patient tissue)) (UniProt Q9UHX3); test: as above
[4] = target: T1, TGFβRI (human (endogenous in whole blood cells and patient tissue)); test: proximity ligation; ex vivo whole blood model: adherent whole blood cells with heat-necrotic cells preincubated in NHS of the same donor, 10% NHS, 1.5 h; fixed, permeabilised; monoclonal mouse FHR1 antibody with rabbit anti-EMR2 antiserum or TGFβRI antibody; FHR1 sufficient and ΔFHR1/3 donors
[5] = target: EMR2 receptor on monocytes and in patient tissue (human (endogenous in blood monocytes and patient tissue)) (UniProt Q9UHX3); test: as above

For “Recombinant factor H-related protein FHR1 (from UniProt Q03591 19-330)”, the binding [1] was “no binding (tested: 30 µg mL^-1)”.
With “Serum-derived FHR1 (from UniProt Q03591 19-330)” the binding [2] was “no binding”, the binding [3] was “binds” and the binding [4] was “no binding”. The binding [5] was “binds”.
